Here are results for ten molecules from patent publication EP4763862A1.

The labels stand for the following.
T1: human B7-H3 on CHO-S-human B7-H3 cells (human) (UniProt Q5ZPR3)
T1 sequence (looked up): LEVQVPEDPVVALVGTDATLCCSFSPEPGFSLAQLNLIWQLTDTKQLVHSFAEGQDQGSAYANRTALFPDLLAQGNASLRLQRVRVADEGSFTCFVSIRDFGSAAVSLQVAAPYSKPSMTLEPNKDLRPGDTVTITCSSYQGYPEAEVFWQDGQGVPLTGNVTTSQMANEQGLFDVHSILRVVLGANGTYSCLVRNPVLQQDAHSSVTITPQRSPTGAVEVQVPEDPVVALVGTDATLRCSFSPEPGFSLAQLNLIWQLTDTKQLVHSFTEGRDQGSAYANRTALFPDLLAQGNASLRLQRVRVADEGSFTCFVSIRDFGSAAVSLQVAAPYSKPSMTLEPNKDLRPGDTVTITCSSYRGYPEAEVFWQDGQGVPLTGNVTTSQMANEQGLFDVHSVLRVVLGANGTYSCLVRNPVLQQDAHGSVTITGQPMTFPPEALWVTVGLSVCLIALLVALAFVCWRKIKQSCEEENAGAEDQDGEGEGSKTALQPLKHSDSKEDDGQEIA

B1: 16-B6-G3-E10 (antibody, human IgG1, kappa, V domains shown)
VH: EVQLQQSGTELVRPGALVKLSCKTSGFNIKDCYMHWVKQRPEQGLEWIGWIDPENGNTIYDPKFQGKATITADTSSYTAYLQLSSLTSEDTAVYYCARSRARGYAMDYWGQGTSVTVTS
VL: DIVMTQSPASLAVSLGQRATISCRASQSVSTSSYSYMHWYRQIPGQPPKLLIKYASNLESGVPARFSGSGSGTDFTLNIHPVEEEDTATYYCQHSWEIPRTFGGGTKLELKR
B2: 28-F8-C4-A8 (antibody, human IgG1, kappa, V domains shown)
VH: EVQLQQSGAELVQPGASMKLSCKTSGYTFTTYDINWVRQRPEQGLEWIGWIFPGDGTTKYNEKFKGKATLTTDKSSSTAYMHLSRLTSEDSVVYFCARTPWFDYWGQGTTLTVSS
VL: DIVLSQSPAIMSASPGEKVIMTCSASSSISYMYWYQQKPGTSPKRWIYDTSKLASGVPARFSVSGSGTSYSLTISSMEAEDAATYYCHQRSSYPTFGGGTKLELKR
B3: 19-F1-E9-B11 (antibody, human IgG1, kappa, V domains shown)
VH: EVQLQQSGPSLVKPSQTLSLTCSVTGGSITSFYWNWIRKFPGNKLEYMGYISSSGSTYYNPSLKSRISITRDTSKNQSYLQLNSVTAEDTATYYCARGGVHYGFGDYWGQGTSVTVSS
VL: DIVMTQSAPSVPVTPGESVSISCRSSKSLLHSNGNTYLYWFLQRPGQSPQLLIYRMSNLASGVPDRFSGSGSGTAFTLRISRVEAEDVGVYYCMQHLEYPLTFGAGTKLELKR
B4: 16-D10-E1-E1 (antibody, human IgG1, kappa, V domains shown)
VH: EVQLQQSGPELVRPGVSVKISCKGSGYTFTDYAMHWVKQSHAKSLEWIGVINTYSGNTYYSQKFKGKATMTVDKSSSTAYMELARLTSEDSAIYYCARGAGYFPYWYFDVWGAGTTVTVSS
VL: DIQMIQSPSYLAASPGETITINCRASKSISKYLAWYQEKPGKTNKLLIYSGSTLQSGIPSRFSGSGSGTDFTLTISSLEPEDFAMYYCQQHYEYPYTFGGGTKLEIKR
B5: 28-B1-E8-C11 (antibody, human IgG1, kappa, V domains shown)
VH: EVKLVESGAVLVKPGASVKISCKASGYTLSDFNMDWVKQSQGKSLEWVGDINPNYDTITYNQKFRGKATLTVDRSSNTAYMELRSLTSEDSAVYYCARGELGRYFYVWGAGTTVTVSS
VL: DIQLTQPPASLSASVGETVTITCRASENVYSYLAWYRQKQGRSPQLLVYNAKTLPEGVPSRFSGSGSGTQFSLKINSLQTEDLGDYYCQHHYGTPWTFGGGTKLEIKR
B6: 41-G9-G4-D3 (antibody, human IgG1, kappa, V domains shown)
VH: EVQVVESGPELVKPGASVKMSCKTSAYTFSDSVLSWVKQRTGQGLEWIGEIYPRGNVTHYNGKFKGKATLTADKSSNTAFMHFSSLTSEDSAVYFCARWNNFFFDYWGQGSTLTVSS
VL: DIVMTQPPLSLPVTLGDLASISCRSSQSLVHSNGITYLHWYLQKPGQSPKLLIYKVSNRFSGVPDRFSGSGSGTDFTLKISRVEAEDLGVYFCSQSTHFPWTFGGGTKLELKR
B7: 9-F1-D9-F10 (antibody, human IgG1, kappa, V domains shown)
VH: EVQLVESGGGLVQPGGSLRVSCATSGFTFSDYYMSWVRQPPGKALEWLGFIRNKINGYTTEYSASVKGRFTISRDNSQSILYLQMNTLRAEDSATYYCTRDSSQRPFAYWGQGTLVTVSA
VL: DIVMTQSPSSLSVSAGEKVTMTCKSSQSLLNSRSQKNFLAWYQQKPGQPPKLLIYGASTRESGVPDRFTGSGSGTDFTLTISNVQAEDLAVYYCQNDLTYPLTFGAGTKLELKR
B8: 48-B4-D3-E3 (antibody, human IgG1, kappa, V domains shown)
VH: EVQLQESGGDLVKPGGSLKLSCAASGFTFSSYGMSWVRQTPEKRLEWVASISGSGSYTYYPDSLKGRFTISRDNAKNNLYLQMSSLRSEDTALYYCARQDGYWYFDVWGAGTTVTVSS
VL: DILMTQTPKFLLVSAGDRVTITCKASQSVSNDVAWYQQKPGQSPQLLIYYASHRYTGVPDRFTGSGYGTDFTFTISTVQAEDLAVYFCQQDNSSPLTFGAGTKLELKR
B9: 10-A3-C5-C8 (antibody, human IgG1, kappa, V domains shown)
VH: EVQLVESGGGLVKPGGSLKLSCAVSGFTFSSYAMSWVRQTPEKRLEWVASITDGGITFYSDSLKGRFTISRDNSGNILYLQMSSLRSEDTAMYFCARGSITTDWYFDVWGAGTTVTVSS
VL: DIVMTQAPLSLPVSLGDQASISCRSSQSLVHSNGNTYLHWYLQKPGQSPKLLIYKVSNRFSGVPDRFSGSGSGTDFTLKISRVEAEDLGVYFCSQSTHVPPYTFGGGTKLEIKR
B10: 9-A2-G3-H11 (antibody, human IgG1, kappa, V domains shown)
VH: EVQLQQSGPELVRPGESVKISCKGSGYTFTDYAIHWVKQSHAKSLEWIGVISTYYDNTYYNQKFKGRATMTVDKSSSTAYMELARLTSEDSAIYYCARGYGSSFNWYFDVWGAGTTVTVSS
VL: DIVMTQSPSSLAVSAGEKVTMSCKSSQSLLNSRTRKNYLAWYQQKPGQSPKLLIYWASTRESGVPDRFTGSGSGTDFTLTITSVQAEDLAVYYCKQSYNLYTFGGGTKLEIKR

No constants are given. Whether binding was seen depends on the method and setting. Some binding calls cover weakened binding; strength is not graded here.

In the experiment the target is T1, human B7-H3 on CHO-S-human B7-H3 cells (human). Kind of experiment: flow cytometry on CHO-S-human B7-H3 cells, antibody 1 µg/ml.
Turning to B1, the binding result is “binds”. As to B2, the binding result is given as “binds”. For the molecule B3, the binding result was “binds”. The value for B4 was “binds”; that for B5 was “binds”. The value for B6 was “binds”.

For the molecule B7, the binding entry is “binds”.

B8: the binding result was “binds”. In the case of B9, the binding result is “binds”. The value for B10 was “binds”.
